PubChem BioAssay AID1259405 – NCATS, 2018

- Aim: 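Mouse-designed siRNAs used to find CHO productivity engineering targets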 (primary screen)
- System: Chinese hamster CHO-K1 ovary cells with stable secreted eGFP expression
- Reagents: single siRNA against mouse genes, 0.8 pmol siRNA per well (2 µl of 400 nM stock)
- Timing: 3 days
- Read-out: 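Percent of the per-plate non-targeting control median for intracellular GFP per well by laser scanning cytometry and for cell viability by ATP luminescence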
- Scale: GFP, % of control: higher = more GFP per well, higher productivity; viability (ATP), % of control: higher = more viable cells (more ATP)
- Rule for the call: 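Called active when intracellular GFP, relative to negative control, is at or above 120%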
This is an unselected part of about 50,000 reagents. In the full data, about 4,000 (8%) were called active. 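Mouse siRNA library applied to hamster cells; one well for each siRNA.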 A number with no mark means an inactive call. The numbers tell different reagents against one gene apart. Reagent sequences are not shown.

GFP, % of control | viability (ATP), % of control | Gene | reagent
79.5 | 53.7 | Mrpl34 | 1
154 (active) | 74.9 | Mrpl34 | 2
54.2 | 73.6 | Mrpl34 | 3
109 | 113 | Izumo1r | 1
62.2 | 92.3 | Izumo1r | 2
167 (active) | 35.4 | Izumo1r | 3
88.2 | 58.8 | Vmn1r28 | 1
108 | 65.6 | Vmn1r28 | 2
67.1 | 88.7 | Vmn1r28 | 3
41.4 | 63.3 | Sptb | 1
133 (active) | 34.4 | Sptb | 2
65.5 | 49.8 | Sptb | 3
25.7 | 15.3 | Psmd4 | 1
95.6 | 36.7 | Psmd4 | 2
64.1 | 64.5 | Psmd4 | 3
38.1 | 26 | Timeless | 1
64.7 | 72.1 | Timeless | 2
107 | 85.8 | Timeless | 3
75.1 | 78.5 | Kctd4 | 1
111 | 112 | Kctd4 | 2
93.1 | 115 | Scarb2 | 1
52.6 | 56.7 | Scarb2 | 2
89.4 | 73.9 | Scarb2 | 3
90.6 | 92 | Clic5 | 1
167 (active) | 103 | Clic5 | 2
48.5 | 41.9 | Clic5 | 3
89.8 | 86.7 | Sacm1l | 1
86 | 74.2 | Sacm1l | 2
87.2 | 114 | Sacm1l | 3
87.6 | 74.7 | Vav1 | 1
89.6 | 80.2 | Vav1 | 2
67.6 | 71.9 | Vav1 | 3
66 | 63.3 | Itga4 | 1
120 | 99.6 | Itga4 | 2

Ordered by “GFP, % of control” (lowest first): some entries from above.
GFP, % of control | viability (ATP), % of control | Gene | reagent
41.4 | 63.3 | Sptb | 1
67.1 | 88.7 | Vmn1r28 | 3
88.2 | 58.8 | Vmn1r28 | 1
108 | 65.6 | Vmn1r28 | 2
167 (active) | 35.4 | Izumo1r | 3
